Data: publication PMC6509336, “Wnt5a is a TLR2/4-ligand that induces tolerance in human myeloid cells” (Communications Biology, 2019)
Results are given in words; binding and its absence hold for the method and conditions named. Some entries that bind do so weakly or less than the wild type.

Sequences of proteins named here, by UniProt entry; tags and fusion partners are left off. Residues count along the entry.
UniProt O00206, residues 24-631: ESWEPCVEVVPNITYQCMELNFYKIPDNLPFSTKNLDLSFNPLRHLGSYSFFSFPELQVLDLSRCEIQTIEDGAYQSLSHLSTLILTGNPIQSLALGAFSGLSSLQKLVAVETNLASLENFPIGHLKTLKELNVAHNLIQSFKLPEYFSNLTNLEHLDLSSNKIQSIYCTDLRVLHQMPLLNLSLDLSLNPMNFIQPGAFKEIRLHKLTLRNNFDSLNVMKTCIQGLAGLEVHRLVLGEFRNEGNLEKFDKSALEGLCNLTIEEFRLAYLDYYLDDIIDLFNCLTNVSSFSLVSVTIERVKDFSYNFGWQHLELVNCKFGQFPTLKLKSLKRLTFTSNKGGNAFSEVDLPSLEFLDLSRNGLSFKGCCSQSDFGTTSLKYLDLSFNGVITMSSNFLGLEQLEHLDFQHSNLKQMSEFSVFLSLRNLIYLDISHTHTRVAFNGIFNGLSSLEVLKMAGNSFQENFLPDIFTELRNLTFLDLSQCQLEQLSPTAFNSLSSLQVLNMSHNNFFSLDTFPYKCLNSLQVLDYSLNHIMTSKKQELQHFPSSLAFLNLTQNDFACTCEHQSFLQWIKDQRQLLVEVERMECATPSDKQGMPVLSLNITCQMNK

Biological target: T1, rhTLR4 (human, UniProt O00206 24-631)
T1 construct: toll-like receptor 4, recombinant human protein from R&D Systems; No catalogue number or construct limits are printed; also called rhTLR4-his; source: bought: R&D Systems
Experiment: native gel or EMSA; rhTLR4 (2.2 ug) and rWnt5a (0.20 ug) mixed at 1:2 molar ratio, 30 min on ice in 10 mM HEPES pH 7.9, 50 mM KCl, 0.2 mM EDTA, 1 mM DTT, 2.5 mM MgCl2, 10% glycerol, 0.05% NP-40; 7% native PAGE; silver stain or blot with anti-Wnt5a and anti-His; the band analysed by LC-MS/MS; both purified

B1: recombinant human/mouse (rh/m)Wnt5a (ligand, UniProt P41221 62-380, looked up)
chain: IIGAQPLCSQLAGLSQGQKKLCHLYQDHMQYIGEGAKTGIKECQYQFRHRRWNCSTVDNTSVFGRVMQIGSRETAFTYAVSAAGVVNAMSRACREGELSTCGCSRAARPKDLPRDWLWGGCGDNIDYGYRFAKEFVDARERERIHAKGSYESARILMNLHNNEAGRRTVYNLADVACKCHGVSGSCSLKTCWLQLADFRKVGDALKEKYDSAAAMRLNSRGKLVQVNSRFNSPTTQDLVYIDPSPDYCVRNESTGSLGTQGRLCNKTSEGMDGCELMCCGRGYDQFKTVQTERCHCKFHWCCYVKCKKCTEIVDQFVCK
notes: Wnt5a, recombinant human/mouse protein from R&D Systems, molecular weight 38,000; Lyophilized from PBS, EDTA and CHAPS; No catalogue number is printed; also called rWnt5a; source: bought: R&D Systems
With B1 the binding was “binds”.
